Results are given in words; binding and its absence hold for the method and conditions named. In cells and extracts the contact can be indirect. Some binding calls cover weakened binding; strength is not graded here. Tags and fused reporters may be left off the sequences shown.

The values that follow come from article PMC2603309.

For experiment [1], the target named is T1, FLAG-TRAF6 (wild-type, full-length murine TRAF6) (murine) (UniProt P70196).
T1 sequence: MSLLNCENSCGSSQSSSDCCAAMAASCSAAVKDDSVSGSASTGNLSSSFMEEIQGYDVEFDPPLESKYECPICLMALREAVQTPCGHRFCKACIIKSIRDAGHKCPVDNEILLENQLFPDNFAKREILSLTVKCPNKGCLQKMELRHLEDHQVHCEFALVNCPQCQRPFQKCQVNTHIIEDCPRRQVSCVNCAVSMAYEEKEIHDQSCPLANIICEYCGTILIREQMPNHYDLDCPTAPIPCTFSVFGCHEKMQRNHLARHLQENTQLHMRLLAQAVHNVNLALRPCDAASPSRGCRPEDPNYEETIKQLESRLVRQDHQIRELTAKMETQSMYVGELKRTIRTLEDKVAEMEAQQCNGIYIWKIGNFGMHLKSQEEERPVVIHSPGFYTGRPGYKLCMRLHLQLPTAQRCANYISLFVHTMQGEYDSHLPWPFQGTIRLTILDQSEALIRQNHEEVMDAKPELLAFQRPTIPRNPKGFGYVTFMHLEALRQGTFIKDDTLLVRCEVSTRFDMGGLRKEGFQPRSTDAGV
Briefly: co-IP; 293T cells co-transfected with equal amounts (1 µg) of FLAG-TRAF6 construct and Myc-tagged partner; lysis buffer 20 mM HEPES pH 7.5, 150 mM NaCl, 10% glycerol, 0.5% NP-40; IP with anti-FLAG agarose, 3 hours at 4°C, washed 3x; immunoblot with anti-Myc. Background: Immunoblotting shows a protein as a band on a membrane.

Experiment [2] has as its target T2, FLAG-TRAF6 C85A/H87A (full-length RING finger mutant) (murine) (UniProt P70196).
T2 sequence: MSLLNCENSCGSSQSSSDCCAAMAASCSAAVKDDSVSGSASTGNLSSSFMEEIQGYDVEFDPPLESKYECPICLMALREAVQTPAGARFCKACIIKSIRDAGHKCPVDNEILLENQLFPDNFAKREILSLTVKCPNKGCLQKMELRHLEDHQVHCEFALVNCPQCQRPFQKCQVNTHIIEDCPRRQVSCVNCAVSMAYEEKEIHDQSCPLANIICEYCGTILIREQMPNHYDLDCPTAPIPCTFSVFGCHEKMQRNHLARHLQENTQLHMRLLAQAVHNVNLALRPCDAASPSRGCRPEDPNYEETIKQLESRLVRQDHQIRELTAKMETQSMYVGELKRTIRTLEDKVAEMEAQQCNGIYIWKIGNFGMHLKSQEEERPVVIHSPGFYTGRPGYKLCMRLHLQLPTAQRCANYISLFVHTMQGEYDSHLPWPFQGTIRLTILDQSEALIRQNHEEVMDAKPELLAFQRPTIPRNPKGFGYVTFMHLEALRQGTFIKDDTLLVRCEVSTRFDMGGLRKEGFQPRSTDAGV
The description is as above.

B1: Myc-tagged TAK1 (enzyme, UniProt Q62073 1-579)
chain: MSTASAASSSSSSSASEMIEAPSQVLNFEEIDYKEIEVEEVVGRGAFGVVCKAKWRAKDVAIKQIESESERKAFIVELRQLSRVNHPNIVKLYGACLNPVCLVMEYAEGGSLYNVLHGAEPLPYYTAAHAMSWCLQCSQGVAYLHSMQPKALIHRDLKPPNLLLVAGGTVLKICDFGTACDIQTHMTNNKGSAAWMAPEVFEGSNYSEKCDVFSWGIILWEVITRRKPFDEIGGPAFRIMWAVHNGTRPPLIKNLPKPIESLMTRCWSKDPSQRPSMEEIVKIMTHLMRYFPGADEPLQYPCQYSDEGQSNSATSTGSFMDIASTNTSNKSDTNMEQVPATNDTIKRLESKLLKNQAKQQSESGRLSLGASRGSSVESLPPTSEGKRMSADMSEIEARIVATAGNGQPRRRSIQDLTVTGTEPGQVSSRSSSPSVRMITTSGPTSEKPARSHPWTPDDSTDTNGSDNSIPMAYLTLDHQLQPLAPCPNSKESMAVFEQHCKMAQEYMKVQTEIALLLQRKQELVAELDQDEKDQQNTSRLVQEHKKLLDENKSLSTYYQQCKKQLEVIRSQQQKRQGTS
As for B1, the binding entry in experiment [1] and in experiment [2] was “binds” each time.
